PMC9951332
These are yes or no findings as the source states them, for the method shown. In cells and extracts the contact can be indirect.

Chains of the proteins cited; added tags and fusions are not shown.
UniProt O95863: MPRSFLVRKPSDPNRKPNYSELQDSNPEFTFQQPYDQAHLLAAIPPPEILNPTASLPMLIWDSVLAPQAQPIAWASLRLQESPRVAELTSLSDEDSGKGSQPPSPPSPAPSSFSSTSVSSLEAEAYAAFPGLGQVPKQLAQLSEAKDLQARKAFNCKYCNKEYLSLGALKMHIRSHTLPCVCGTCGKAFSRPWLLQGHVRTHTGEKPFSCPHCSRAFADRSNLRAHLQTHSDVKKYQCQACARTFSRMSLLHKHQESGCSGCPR

Biological target: T1, CD73 (NT5E, ecto-5-nucleotidase), endogenous (human (endogenous in PANC-1)) (UniProt P21589)
T1 sequence: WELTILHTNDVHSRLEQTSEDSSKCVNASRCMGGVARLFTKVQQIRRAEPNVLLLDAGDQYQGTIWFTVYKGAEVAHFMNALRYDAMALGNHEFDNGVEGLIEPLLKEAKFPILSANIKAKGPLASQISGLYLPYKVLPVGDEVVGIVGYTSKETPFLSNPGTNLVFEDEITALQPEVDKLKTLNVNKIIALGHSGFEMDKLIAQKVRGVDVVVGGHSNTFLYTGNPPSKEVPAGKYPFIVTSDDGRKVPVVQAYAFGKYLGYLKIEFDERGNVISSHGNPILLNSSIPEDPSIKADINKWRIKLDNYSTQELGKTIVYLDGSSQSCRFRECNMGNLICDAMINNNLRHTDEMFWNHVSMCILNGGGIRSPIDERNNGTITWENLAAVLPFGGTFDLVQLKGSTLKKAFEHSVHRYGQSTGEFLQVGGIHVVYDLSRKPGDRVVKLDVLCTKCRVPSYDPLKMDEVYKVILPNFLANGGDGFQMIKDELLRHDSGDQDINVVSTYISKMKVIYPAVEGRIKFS
Assay: co-IP; co-IP for CD73 and Snail (Figure S6A); cells and antibodies not given

- binding: no binding
Substance: Snail, endogenous (from UniProt O95863 1-264)
